Measured values published in the supplement of paper PMC10849652.
Some of the results follow.

By UniProt entry, the sequences of proteins in these tests, tags left out. Where a name states a change or a piece, a line headed by the entry shows the natural chain unless it says otherwise.
UniProt O75190: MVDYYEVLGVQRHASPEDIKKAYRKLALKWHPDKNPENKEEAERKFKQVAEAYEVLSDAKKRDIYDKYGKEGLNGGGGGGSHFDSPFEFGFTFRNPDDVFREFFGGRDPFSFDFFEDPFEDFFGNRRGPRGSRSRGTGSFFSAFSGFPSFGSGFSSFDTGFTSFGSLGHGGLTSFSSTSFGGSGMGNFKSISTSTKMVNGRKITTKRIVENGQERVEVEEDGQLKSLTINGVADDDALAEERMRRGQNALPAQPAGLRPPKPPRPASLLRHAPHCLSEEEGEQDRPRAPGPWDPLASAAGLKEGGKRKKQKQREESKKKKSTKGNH
UniProt O00115: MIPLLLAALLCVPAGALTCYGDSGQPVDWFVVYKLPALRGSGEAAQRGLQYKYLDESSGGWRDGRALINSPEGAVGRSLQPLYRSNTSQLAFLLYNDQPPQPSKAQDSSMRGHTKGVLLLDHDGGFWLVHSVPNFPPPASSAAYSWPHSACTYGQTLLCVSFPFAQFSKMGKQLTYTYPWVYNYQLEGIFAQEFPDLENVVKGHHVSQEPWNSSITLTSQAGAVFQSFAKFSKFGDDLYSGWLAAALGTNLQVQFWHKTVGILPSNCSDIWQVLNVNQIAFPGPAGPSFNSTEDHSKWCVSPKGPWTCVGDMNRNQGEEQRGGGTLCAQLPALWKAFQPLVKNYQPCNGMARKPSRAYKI
UniProt P51452: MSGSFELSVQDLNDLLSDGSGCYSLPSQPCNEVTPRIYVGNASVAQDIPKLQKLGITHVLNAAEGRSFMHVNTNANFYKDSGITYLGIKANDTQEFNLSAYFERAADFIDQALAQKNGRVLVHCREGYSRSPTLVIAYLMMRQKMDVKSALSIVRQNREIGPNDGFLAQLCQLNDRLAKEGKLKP
UniProt Q14126: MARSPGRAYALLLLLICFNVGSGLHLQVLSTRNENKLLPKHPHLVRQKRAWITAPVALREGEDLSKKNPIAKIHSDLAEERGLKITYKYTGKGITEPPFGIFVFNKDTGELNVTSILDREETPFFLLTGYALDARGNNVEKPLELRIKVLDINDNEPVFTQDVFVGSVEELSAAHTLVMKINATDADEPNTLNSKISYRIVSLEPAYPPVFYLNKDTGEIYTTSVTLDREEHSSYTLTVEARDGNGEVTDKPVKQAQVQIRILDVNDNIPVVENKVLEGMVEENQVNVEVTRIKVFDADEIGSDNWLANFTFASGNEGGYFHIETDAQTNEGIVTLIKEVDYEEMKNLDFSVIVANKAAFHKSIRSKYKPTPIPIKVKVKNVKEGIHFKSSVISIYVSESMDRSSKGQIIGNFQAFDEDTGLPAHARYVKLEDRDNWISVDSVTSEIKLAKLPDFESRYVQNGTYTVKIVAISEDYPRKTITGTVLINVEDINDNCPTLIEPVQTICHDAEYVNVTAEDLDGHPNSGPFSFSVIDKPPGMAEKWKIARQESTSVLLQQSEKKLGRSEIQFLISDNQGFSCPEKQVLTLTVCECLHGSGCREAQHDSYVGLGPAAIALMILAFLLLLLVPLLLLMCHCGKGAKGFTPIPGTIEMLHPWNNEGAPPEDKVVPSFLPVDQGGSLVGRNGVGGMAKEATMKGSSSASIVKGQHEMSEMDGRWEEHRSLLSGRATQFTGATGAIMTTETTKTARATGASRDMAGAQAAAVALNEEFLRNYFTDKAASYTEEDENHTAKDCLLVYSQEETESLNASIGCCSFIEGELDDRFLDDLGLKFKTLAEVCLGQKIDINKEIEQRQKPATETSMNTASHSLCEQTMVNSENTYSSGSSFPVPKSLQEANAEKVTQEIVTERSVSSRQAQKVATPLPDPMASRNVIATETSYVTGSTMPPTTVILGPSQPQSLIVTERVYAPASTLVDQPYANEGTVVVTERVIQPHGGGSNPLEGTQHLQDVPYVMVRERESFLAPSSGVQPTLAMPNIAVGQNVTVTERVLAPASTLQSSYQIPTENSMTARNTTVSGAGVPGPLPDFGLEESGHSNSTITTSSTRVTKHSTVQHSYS
UniProt Q9NVM6: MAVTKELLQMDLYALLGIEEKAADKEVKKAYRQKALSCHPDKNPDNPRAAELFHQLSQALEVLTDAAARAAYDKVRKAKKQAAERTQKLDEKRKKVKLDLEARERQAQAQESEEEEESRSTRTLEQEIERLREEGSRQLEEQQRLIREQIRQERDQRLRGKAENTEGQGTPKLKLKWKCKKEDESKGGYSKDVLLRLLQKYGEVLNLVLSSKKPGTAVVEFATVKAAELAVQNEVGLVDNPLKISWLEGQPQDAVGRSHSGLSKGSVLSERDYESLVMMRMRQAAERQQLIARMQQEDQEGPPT
UniProt Q9BQC3: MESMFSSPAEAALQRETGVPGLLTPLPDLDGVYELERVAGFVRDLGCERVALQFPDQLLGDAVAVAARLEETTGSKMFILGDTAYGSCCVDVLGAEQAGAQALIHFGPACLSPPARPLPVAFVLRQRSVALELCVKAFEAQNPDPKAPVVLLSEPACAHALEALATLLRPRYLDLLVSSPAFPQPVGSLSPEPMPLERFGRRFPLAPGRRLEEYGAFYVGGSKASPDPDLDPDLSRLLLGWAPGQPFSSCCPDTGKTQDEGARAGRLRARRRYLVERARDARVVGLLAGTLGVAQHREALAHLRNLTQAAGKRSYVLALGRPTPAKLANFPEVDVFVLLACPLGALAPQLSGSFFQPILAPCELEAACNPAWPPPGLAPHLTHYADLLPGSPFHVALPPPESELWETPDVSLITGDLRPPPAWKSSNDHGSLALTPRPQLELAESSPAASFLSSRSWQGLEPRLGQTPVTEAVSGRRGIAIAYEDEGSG
UniProt O00559: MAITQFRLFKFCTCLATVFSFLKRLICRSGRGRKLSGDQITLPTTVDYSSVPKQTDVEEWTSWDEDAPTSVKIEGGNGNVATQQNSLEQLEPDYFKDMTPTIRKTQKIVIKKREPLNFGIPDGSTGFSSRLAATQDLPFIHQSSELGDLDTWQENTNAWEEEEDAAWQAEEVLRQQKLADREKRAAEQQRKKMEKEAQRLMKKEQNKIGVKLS
UniProt O43598: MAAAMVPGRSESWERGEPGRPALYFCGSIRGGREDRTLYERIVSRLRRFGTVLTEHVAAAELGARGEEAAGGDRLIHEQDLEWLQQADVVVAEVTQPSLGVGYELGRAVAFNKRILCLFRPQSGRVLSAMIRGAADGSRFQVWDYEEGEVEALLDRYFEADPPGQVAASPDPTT
UniProt Q9BZG8: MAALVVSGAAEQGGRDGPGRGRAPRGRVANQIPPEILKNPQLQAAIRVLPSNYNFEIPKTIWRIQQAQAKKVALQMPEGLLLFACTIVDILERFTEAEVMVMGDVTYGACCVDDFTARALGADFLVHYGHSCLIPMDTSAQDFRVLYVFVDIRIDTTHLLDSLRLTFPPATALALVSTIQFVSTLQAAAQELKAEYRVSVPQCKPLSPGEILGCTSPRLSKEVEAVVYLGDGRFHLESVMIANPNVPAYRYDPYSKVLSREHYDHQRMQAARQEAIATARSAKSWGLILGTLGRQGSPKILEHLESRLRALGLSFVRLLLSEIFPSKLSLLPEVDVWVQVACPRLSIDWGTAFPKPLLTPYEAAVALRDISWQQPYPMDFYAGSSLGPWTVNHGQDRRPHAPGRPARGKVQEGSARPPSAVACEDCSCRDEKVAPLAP
UniProt Q7Z388: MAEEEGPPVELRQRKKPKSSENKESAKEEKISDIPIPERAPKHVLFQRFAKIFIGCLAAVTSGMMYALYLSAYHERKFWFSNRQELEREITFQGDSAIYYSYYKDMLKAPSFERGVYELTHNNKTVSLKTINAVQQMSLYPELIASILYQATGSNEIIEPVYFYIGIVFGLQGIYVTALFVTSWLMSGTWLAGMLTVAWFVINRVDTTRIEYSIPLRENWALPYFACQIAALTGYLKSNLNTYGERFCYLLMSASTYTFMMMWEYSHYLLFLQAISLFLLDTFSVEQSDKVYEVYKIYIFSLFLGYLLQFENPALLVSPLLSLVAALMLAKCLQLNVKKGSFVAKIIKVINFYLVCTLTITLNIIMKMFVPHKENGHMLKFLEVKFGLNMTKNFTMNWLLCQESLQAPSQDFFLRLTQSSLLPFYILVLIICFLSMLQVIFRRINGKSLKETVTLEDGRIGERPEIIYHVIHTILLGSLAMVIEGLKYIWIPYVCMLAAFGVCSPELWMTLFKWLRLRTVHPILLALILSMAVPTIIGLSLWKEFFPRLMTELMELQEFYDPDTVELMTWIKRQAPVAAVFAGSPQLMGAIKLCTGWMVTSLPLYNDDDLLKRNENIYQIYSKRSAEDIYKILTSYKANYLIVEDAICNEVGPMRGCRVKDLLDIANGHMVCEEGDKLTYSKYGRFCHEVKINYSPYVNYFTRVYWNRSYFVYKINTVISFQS
UniProt Q86TI2: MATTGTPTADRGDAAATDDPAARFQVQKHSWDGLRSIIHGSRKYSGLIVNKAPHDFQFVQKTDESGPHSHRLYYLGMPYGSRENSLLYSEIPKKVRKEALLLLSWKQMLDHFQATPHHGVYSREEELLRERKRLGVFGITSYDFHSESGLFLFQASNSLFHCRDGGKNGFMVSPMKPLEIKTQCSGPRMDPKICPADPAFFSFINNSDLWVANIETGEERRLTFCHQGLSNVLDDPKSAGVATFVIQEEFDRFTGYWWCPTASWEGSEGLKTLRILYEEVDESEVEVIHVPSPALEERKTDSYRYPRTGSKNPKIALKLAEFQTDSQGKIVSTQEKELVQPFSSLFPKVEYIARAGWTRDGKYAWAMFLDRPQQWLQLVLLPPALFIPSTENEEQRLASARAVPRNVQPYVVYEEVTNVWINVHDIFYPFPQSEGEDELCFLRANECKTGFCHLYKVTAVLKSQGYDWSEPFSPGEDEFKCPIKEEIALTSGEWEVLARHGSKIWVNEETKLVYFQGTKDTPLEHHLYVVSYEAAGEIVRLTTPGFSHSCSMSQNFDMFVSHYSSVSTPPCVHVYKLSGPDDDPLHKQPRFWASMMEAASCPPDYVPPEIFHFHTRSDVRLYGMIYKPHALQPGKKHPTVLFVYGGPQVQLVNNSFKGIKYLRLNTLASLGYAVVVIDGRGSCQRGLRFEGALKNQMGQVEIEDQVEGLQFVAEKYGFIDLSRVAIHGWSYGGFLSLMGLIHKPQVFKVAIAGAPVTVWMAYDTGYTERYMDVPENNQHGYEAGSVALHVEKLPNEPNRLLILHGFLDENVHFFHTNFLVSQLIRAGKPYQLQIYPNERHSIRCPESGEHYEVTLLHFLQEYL
UniProt Q9BTV6: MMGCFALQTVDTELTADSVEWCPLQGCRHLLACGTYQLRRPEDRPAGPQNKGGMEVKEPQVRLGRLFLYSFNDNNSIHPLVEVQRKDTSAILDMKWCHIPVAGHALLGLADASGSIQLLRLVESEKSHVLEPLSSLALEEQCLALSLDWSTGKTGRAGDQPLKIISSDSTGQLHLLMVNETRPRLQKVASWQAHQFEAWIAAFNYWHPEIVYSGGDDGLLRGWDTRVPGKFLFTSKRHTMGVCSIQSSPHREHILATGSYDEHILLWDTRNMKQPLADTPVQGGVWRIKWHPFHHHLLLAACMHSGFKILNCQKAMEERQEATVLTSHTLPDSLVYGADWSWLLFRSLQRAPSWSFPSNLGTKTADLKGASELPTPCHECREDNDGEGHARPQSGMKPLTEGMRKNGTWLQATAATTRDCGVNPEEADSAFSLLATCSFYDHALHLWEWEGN
UniProt Q9BZQ6: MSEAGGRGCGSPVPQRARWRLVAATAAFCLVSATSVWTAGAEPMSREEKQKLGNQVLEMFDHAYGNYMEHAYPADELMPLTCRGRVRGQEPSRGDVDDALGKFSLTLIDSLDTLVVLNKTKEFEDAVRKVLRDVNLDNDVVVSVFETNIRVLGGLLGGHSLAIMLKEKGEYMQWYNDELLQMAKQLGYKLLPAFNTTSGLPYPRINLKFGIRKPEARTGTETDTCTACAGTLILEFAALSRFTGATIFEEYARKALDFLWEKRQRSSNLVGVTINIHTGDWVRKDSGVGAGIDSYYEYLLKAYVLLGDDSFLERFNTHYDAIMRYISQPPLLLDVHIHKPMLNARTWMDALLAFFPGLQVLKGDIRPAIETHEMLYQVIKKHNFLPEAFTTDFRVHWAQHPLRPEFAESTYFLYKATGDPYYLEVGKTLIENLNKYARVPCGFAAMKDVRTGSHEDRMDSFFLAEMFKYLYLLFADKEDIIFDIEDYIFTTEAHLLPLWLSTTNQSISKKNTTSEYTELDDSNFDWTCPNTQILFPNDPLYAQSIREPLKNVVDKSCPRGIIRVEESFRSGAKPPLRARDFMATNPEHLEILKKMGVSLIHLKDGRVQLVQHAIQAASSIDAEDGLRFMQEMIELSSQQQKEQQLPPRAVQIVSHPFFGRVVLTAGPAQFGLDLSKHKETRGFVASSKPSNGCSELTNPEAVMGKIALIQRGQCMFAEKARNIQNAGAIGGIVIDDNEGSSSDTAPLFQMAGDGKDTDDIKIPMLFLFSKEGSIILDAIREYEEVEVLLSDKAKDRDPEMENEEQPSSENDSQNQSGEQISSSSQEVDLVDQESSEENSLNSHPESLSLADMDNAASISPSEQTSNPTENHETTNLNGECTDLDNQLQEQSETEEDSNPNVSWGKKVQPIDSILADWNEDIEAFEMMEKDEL

compound: CC[C@H](C)[C@@H](C(=O)N[C@@H]([C@@H](C)O)C(=O)N[C@@H](CC(C)C)C(=O)[C@]1(CO1)C)NC(=O)[C@H]([C@@H](C)CC)N(C)C(=O)C [epoxomicin]; experiment: log2 fold change, soluble protein after heating vs DMSO (PISA); higher = thermal stabilisation; K562 cells, 10 uM, 30 min; active = over 0.2 and 3.5 SD of the protein, either way, in both replicates (recomputed)
How it was run: (§1)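 Soluble protein was quantified by TMTpro 16plex LC-MS/MS after channel sums were equalised. It was obtained as the supernatant after 21,000xg for 90 min from pooled aliquots of K562 cells (2×10^6 cells/mL, 10 μM compound, 30 min) heated for 3 min across 48°C-58°C and extracted in PBS with 0.5% NP-40 at 4°C. Thermal stability values are relative to control samples and come from duplicates. They are given as log2 fold changes.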

log2 fold change, inactive:
DNAJB6 (UniProt O75190) -0.014
DOCK9 isoform 4 (UniProt Q9BZ29) 0.045
DPP7 (UniProt Q9UHL4) -0.043
DNASE2 (UniProt O00115) 0.016
DUSP3 (UniProt P51452) 0.038
DSG2 (UniProt Q14126) 0.022
DNAJC17 (UniProt Q9NVM6) 0.003
DPH2 (UniProt Q9BQC3) 0.069
EBAG9 isoform 2 (UniProt O00559) -0.017
DUT (UniProt P33316) 0.045
DNPH1 (UniProt O43598) 0.013
DPAGT1 (UniProt Q9H3H5) 0.116
DPH1 (UniProt Q9BZG8) 0.05
DOCK7 (UniProt Q96N67) -0.032
DPY19L4 (UniProt Q7Z388) 0.116
DPP9 isoform 2 (UniProt Q86TI2) -0.05
DPH7 (UniProt Q9BTV6) -0.047
EDEM3 (UniProt Q9BZQ6) -0.011

compound: CCn1c(C(=O)N(C2CC2)C2CC2)cc2c3c(ncn3C)c(Nc3cc(C)n(C)n3)nc21; experiment: as above
How it was run: as §1

log2 fold change, inactive:
EDEM1 (UniProt Q92611) 0.046
EBP (UniProt Q15125) -0.053
DYNLL1 (UniProt P63167) 0.003
DPH6 (UniProt Q7L8W6) -0.025
ECSIT (UniProt Q9BQ95) -0.028
DNAJC9 (UniProt Q8WXX5) -0.005
DNAJC2 (UniProt Q99543) -0.118
ECI1 (UniProt P42126) 0.001
DNM1L isoform 6 (UniProt O00429) 0.026
DPF2 (UniProt Q92785) 0.015
DNAJB4 (UniProt Q9UDY4) 0.002
ECHDC1 (UniProt Q9NTX5) 0.012
DTD1 (UniProt Q8TEA8) 0.006
DR1 (UniProt Q01658) 0.043
DPY30 (UniProt Q9C005) -0.023
DNAJB6 (UniProt O75190) -0.01
DOCK9 isoform 4 (UniProt Q9BZ29) 0.004
DPP7 (UniProt Q9UHL4) -0.017
DNASE2 (UniProt O00115) 0.041
DUSP3 (UniProt P51452) -0.028
DSG2 (UniProt Q14126) 0.032
DNAJC17 (UniProt Q9NVM6) -0.089
DPH2 (UniProt Q9BQC3) 0.019
EBAG9 isoform 2 (UniProt O00559) -0.032
DUT (UniProt P33316) -0.016
DNPH1 (UniProt O43598) 0.013
DPAGT1 (UniProt Q9H3H5) 0.062
DPH1 (UniProt Q9BZG8) 0.02
DOCK7 (UniProt Q96N67) 0.009
DPY19L4 (UniProt Q7Z388) -0.011
DPP9 isoform 2 (UniProt Q86TI2) -0.013
DPH7 (UniProt Q9BTV6) -0.017
EDEM3 (UniProt Q9BZQ6) 0.029

compound: CCn1cc(-c2ccnc3[nH]c(-c4cccc(CN(C)C)c4)cc23)c(-c2ccc(NC(=O)N(C)C)cc2)n1; experiment: as above
How it was run: as §1

log2 fold change, inactive:
EDEM1 (UniProt Q92611) -0.077
EBP (UniProt Q15125) 0.019
DYNLL1 (UniProt P63167) -0.106
DPH6 (UniProt Q7L8W6) -0.102
ECSIT (UniProt Q9BQ95) 0.076
DNAJC9 (UniProt Q8WXX5) 0.043
DNAJC2 (UniProt Q99543) 0.014
ECI1 (UniProt P42126) 0.009
DNM1L isoform 6 (UniProt O00429) -0.036
DPF2 (UniProt Q92785) 0.058
DNAJB4 (UniProt Q9UDY4) 0.033
ECHDC1 (UniProt Q9NTX5) 0.048
DTD1 (UniProt Q8TEA8) 0.023
DR1 (UniProt Q01658) -0.001
DPY30 (UniProt Q9C005) 0.125
DNAJB6 (UniProt O75190) -0.011
DOCK9 isoform 4 (UniProt Q9BZ29) -0.12
DPP7 (UniProt Q9UHL4) 0.009
DNASE2 (UniProt O00115) 0.018
DUSP3 (UniProt P51452) -0.073
DSG2 (UniProt Q14126) -0.045
DNAJC17 (UniProt Q9NVM6) -0.055
DPH2 (UniProt Q9BQC3) 0.07
EBAG9 isoform 2 (UniProt O00559) -0.039
DUT (UniProt P33316) -0.015
DNPH1 (UniProt O43598) -0.02
DPAGT1 (UniProt Q9H3H5) -0.031
DPH1 (UniProt Q9BZG8) 0
DOCK7 (UniProt Q96N67) 0.01
DPY19L4 (UniProt Q7Z388) -0.049
DPP9 isoform 2 (UniProt Q86TI2) -0.103
DPH7 (UniProt Q9BTV6) 0.007
EDEM3 (UniProt Q9BZQ6) -0.002
